The other results are listed elsewhere or left out. Small differences around the control level are noise.

Sequences of proteins named here, by UniProt entry; tags and fusion partners are left off. A change or cut given only in a name is not applied to a line headed by its entry.
UniProt P82347: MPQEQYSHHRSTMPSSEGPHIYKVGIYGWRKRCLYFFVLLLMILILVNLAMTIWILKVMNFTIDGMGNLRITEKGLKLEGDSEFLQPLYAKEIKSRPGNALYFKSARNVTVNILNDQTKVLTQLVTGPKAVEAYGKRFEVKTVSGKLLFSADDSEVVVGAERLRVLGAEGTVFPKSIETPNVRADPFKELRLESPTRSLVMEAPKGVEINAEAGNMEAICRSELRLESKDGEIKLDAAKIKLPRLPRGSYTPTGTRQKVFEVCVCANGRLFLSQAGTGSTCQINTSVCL
UniProt P84309: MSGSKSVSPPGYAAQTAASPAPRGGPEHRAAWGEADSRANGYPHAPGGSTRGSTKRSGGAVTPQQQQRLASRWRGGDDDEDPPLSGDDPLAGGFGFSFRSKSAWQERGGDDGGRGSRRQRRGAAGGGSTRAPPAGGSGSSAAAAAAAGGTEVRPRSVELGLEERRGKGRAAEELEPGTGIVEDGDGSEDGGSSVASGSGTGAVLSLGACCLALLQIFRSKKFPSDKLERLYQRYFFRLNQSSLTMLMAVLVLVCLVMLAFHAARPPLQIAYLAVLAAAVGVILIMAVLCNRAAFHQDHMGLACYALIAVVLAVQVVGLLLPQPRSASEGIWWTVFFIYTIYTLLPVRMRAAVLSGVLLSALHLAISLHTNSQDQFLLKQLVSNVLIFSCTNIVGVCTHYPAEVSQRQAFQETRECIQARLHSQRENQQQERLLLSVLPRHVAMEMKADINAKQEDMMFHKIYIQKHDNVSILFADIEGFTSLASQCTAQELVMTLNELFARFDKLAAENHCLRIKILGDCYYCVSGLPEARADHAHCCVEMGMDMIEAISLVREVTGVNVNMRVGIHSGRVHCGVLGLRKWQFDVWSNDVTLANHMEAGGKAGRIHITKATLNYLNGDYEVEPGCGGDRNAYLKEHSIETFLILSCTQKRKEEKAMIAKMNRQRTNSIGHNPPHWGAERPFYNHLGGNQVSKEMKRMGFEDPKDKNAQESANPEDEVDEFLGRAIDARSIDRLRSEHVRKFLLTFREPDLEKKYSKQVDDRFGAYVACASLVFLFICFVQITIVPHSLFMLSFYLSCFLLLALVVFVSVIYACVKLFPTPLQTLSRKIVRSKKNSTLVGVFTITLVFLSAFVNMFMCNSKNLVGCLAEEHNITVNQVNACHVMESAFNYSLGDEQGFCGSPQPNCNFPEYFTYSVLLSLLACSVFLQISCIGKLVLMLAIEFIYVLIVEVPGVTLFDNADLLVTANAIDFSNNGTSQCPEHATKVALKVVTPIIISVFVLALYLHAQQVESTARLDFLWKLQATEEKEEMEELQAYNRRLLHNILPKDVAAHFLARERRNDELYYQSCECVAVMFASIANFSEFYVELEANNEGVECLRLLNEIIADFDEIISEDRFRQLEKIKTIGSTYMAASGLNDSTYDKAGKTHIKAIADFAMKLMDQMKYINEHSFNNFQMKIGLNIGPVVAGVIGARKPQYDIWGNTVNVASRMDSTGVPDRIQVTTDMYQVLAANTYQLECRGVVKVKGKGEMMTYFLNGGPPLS
UniProt P97868: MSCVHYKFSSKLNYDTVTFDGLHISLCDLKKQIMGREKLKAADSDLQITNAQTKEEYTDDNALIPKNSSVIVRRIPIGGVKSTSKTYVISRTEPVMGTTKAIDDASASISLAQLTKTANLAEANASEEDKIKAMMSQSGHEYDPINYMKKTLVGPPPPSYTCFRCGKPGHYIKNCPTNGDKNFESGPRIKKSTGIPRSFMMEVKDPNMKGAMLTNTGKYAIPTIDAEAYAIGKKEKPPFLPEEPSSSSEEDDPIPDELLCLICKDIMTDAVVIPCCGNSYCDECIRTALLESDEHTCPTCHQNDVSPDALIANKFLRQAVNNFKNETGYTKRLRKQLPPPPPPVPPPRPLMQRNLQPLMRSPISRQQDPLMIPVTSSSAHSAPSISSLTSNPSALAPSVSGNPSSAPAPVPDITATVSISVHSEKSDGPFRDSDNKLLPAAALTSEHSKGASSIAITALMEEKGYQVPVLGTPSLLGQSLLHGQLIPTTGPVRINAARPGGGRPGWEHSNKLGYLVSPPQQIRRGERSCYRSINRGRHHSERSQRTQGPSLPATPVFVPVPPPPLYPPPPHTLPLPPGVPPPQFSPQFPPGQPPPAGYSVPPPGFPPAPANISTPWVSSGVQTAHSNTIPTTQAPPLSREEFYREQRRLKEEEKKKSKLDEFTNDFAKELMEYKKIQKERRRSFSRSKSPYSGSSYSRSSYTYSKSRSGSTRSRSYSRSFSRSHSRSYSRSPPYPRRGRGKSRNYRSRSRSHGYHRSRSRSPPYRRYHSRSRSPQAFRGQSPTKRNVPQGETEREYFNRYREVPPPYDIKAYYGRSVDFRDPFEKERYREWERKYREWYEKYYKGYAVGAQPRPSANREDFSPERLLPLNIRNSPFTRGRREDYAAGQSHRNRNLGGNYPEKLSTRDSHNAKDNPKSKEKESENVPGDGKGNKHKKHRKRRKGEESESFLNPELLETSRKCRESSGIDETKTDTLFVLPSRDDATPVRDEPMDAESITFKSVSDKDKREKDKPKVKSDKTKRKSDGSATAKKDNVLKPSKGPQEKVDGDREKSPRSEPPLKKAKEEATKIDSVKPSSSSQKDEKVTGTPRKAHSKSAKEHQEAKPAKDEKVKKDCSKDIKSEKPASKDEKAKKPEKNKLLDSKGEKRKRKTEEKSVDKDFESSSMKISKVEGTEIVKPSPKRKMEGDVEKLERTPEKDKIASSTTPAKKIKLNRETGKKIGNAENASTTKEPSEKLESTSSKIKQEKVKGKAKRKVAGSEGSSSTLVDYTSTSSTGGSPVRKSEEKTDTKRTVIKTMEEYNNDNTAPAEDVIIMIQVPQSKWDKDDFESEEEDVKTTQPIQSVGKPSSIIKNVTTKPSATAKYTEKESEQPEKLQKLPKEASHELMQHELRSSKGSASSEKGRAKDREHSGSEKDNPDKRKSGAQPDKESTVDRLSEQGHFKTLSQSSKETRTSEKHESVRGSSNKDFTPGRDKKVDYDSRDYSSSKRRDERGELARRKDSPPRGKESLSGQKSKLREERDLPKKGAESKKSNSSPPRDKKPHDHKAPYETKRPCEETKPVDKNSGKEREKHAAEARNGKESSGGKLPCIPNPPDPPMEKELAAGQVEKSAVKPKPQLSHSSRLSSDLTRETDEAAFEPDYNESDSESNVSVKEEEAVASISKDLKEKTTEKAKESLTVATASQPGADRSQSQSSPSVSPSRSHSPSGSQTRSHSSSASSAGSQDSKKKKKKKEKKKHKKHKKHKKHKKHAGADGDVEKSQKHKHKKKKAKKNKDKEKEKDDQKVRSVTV
UniProt P70365: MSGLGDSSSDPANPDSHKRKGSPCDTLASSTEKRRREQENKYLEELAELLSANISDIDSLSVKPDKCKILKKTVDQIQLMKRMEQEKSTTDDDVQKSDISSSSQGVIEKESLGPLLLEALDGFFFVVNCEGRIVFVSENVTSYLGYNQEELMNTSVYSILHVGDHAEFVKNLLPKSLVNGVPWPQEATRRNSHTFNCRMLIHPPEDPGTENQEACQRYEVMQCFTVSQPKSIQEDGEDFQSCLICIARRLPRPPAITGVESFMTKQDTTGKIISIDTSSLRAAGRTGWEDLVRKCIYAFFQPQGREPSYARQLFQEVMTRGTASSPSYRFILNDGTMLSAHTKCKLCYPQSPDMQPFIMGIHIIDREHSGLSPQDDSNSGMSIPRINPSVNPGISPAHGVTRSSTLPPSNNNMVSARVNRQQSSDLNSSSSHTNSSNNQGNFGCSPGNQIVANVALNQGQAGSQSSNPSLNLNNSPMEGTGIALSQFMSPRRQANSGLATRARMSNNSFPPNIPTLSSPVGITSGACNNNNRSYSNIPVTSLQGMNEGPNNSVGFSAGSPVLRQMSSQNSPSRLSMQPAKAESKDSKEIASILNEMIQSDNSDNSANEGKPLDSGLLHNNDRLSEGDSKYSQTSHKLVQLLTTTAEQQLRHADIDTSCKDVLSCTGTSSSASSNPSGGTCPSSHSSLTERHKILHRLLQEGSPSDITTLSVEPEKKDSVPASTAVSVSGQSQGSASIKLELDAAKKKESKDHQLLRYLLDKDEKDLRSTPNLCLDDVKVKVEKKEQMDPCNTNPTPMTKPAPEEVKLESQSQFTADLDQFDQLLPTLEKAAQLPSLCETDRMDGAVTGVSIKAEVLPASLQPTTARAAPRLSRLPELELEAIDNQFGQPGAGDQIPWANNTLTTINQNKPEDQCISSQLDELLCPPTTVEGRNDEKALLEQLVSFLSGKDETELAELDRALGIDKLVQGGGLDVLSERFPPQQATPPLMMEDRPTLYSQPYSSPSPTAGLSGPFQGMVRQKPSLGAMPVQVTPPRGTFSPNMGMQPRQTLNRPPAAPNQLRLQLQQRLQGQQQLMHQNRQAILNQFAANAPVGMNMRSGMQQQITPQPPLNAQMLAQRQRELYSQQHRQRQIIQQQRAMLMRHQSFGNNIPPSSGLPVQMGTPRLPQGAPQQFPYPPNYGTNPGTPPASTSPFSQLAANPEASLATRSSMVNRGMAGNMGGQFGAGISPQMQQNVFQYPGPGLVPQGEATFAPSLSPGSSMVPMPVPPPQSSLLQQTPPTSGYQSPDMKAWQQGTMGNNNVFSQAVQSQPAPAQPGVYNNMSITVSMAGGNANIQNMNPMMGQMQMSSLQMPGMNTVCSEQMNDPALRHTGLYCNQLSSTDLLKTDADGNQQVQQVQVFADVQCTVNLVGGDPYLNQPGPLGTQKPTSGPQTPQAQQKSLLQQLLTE
UniProt Q02105: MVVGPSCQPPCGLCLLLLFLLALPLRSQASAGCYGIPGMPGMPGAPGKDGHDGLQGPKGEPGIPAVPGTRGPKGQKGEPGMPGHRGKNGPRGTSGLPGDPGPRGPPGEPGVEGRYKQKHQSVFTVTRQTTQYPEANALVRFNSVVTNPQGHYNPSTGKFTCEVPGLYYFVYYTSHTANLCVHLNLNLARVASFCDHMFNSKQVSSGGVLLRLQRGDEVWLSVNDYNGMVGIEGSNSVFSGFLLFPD
UniProt P70380: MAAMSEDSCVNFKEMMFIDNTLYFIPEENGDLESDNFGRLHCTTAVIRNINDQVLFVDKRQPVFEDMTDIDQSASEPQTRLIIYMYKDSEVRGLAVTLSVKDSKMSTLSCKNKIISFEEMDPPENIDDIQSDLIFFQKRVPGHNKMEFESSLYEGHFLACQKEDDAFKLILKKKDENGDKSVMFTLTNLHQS
UniProt P70434: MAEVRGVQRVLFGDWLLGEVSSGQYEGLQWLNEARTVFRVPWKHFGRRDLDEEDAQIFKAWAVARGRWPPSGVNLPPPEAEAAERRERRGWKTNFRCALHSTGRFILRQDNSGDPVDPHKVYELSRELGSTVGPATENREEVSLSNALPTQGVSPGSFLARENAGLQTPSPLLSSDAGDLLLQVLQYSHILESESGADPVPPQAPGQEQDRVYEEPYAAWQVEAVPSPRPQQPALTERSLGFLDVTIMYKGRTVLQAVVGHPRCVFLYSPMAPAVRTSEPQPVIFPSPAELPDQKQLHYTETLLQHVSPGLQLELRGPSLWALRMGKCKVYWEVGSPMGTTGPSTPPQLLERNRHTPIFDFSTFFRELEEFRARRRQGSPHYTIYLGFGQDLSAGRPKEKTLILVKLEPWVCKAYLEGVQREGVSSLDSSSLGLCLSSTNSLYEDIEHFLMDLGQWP
UniProt P97494: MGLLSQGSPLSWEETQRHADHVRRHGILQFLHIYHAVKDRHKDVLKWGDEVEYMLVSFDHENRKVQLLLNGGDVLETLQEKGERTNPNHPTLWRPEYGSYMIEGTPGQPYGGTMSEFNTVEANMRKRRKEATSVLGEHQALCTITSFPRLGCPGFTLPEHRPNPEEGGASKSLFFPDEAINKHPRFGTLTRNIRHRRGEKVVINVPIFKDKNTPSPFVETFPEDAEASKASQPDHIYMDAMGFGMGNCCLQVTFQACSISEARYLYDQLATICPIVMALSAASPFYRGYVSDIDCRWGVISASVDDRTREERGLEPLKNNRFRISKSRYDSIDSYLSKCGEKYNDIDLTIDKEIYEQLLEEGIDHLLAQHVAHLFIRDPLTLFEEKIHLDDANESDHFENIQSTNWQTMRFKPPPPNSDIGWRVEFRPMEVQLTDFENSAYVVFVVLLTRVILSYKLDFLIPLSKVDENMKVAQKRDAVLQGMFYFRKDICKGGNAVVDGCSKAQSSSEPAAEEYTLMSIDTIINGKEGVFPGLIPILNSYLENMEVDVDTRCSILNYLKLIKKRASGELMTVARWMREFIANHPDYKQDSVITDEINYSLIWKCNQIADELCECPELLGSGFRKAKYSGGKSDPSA
UniProt P97825: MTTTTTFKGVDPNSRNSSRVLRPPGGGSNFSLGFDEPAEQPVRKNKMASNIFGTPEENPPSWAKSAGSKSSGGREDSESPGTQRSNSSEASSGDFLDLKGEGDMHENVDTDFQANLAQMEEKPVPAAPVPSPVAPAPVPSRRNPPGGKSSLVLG

Compound in the experiment: CN[C@@H]1C[C@H]2O[C@@](C)([C@@H]1OC)n1c3ccccc3c3c4c(c5c6ccccc6n2c5c31)C(=O)NC4 [staurosporine]
Put plainly: log2 fold change of tryptic peptide abundance, ligand vs vehicle (limited proteolysis) (log2 ratio); higher = more trypsin-susceptible (destabilized). Conditions: ligand concentration: 20 uM; sample: mouse liver crude lysate; replicate design: treated separately.
Take “UniProt Q01237 (peptide sequence: LETLMETHER, peptide start residue: 480)”: the log2 fold change worked out at 0.299.
Regarding “UniProt P82347 (peptide sequence: VLTQLVTGPK, peptide start residue: 120)”, the log2 fold change was -0.365.
With “UniProt P70178 (peptide sequence: LDEAQSEAPETK, peptide start residue: 387)” the figure was 0.0499; with “UniProt P84309 (peptide sequence: MDSTGVPDR, peptide start residue: 1114)”, -0.417.
With “UniProt P97868 (peptide sequence: DPFEKER, peptide start residue: 821)” the figure was -0.282; with “UniProt P70365 (peptide sequence: ELYSQQHR, peptide start residue: 1121)”, -0.45; with “UniProt P98064 (peptide sequence: SDEDEQHLHVKR, peptide start residue: 531)”, 0.544.
With “UniProt Q02105 (peptide sequence: GTSGLPGDPGPR, peptide start residue: 92)” the figure was -0.0996.
For the target “UniProt P70380 (peptide sequence: LIIYMYK, peptide start residue: 81)”, the log2 fold change was -0.0658.
With “UniProt P70434 (peptide sequence: QLHYTETLLQHVSPGLQLELR, peptide start residue: 296)” the figure was -0.239; with “UniProt P97494 (peptide sequence: KVQLLLNGGDVLETLQEKGER, peptide start residue: 64)”, -0.435.
For the target “UniProt P97825 (peptide sequence: SSGGREDSESPGTQR, peptide start residue: 70)”, the log2 fold change was -0.101.
With “UniProt P97303 (peptide sequence: TDYTPLAGNYGQPHVGQK, peptide start residue: 382)” the figure was -0.326.

The values above are taken from the supplement of paper PMC12819154, “High-throughput peptide-centric local stability assay extends protein–ligand identification to membrane proteins, tissues and bacteria” (Nature Structural & Molecular Biology, 2025).
